From the supplement of paper PMC4635364
Where a name gives a salt, the structure may show the parent alone. The list shows a part of the results. Repeats in this data set agree poorly, so a single value says little.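 Cells: ReNCell VM human fetal ventral-midbrain neural progenitors, differentiated mitogen-free. Blinded raters compared doublecortin-stained (early neurons) or tyrosine hydroxylase-stained (dopaminergic neurons) images with untreated wells, where 0 means no change. After repeats and both raters were averaged, compounds scoring 2 or above became hits for retesting.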

Tested on: ReNCell VM
Experiment: dopaminergic neuron differentiation score (TH+ cell fraction vs untreated, manual image score) (score (0 to 3)); higher = more TH+ dopaminergic neuron differentiation
Conditions: library: Prestwick; 2 uM; 4 weeks; BDNF 10 ng/ml + GDNF 10 ng/ml

Dopaminergic neuron differentiation score, inactive:
CCn1cc(C(=O)O)c(=O)c2cc(F)c(N3CCN(C)CC3)cc21 [Pefloxacine] 0, COC(=O)C1=C(C#N)NC(C)=C(C(=O)OC(C)C)C1c1cccc([N+](=O)[O-])c1 (centres undefined) [Nilvadipine] 0, CCOc1ccc(Cc2nccc3cc(OCC)c(OCC)cc23)cc1OCC [Ethaverine hydrochloride] 1, CCc1oc2ccccc2c1C(=O)c1cc(Br)c(O)c(Br)c1 [Benzbromarone] 0, CO[C@@H]1[C@@H](OC(N)=O)[C@@H](O)[C@H](Oc2ccc3c(O)c(NC(=O)c4ccc(O)c(CC=C(C)C)c4)c(=O)oc3c2C)OC1(C)C [Novobiocin sodium salt] 0, COc1ccc(C(Cl)=C(c2ccc(OC)cc2)c2ccc(OC)cc2)cc1 [Chlorotrianisene] 0, CCN(CCCCOC(=O)c1ccc(OC)c(OC)c1)C(C)Cc1ccc(OC)cc1 (centres undefined) [Mebeverine hydrochloride] 0, C[C@@H]1CN(c2c(F)c(N)c3c(=O)c(C(=O)O)cn(C4CC4)c3c2F)C[C@H](C)N1 [Sparfloxacin] 0

Same assay, conditions: library: Spectrum; 2 uM; 4 weeks; BDNF 10 ng/ml + GDNF 10 ng/ml

Dopaminergic neuron differentiation score, inactive:
CN1C(C(=O)Nc2ccccn2)=C(O)c2ccccc2S1(=O)=O 1, CC(C)(Oc1ccc(CCNC(=O)c2ccc(Cl)cc2)cc1)C(=O)O 0, OCCOCCN1CCN(C(c2ccccc2)c2ccc(Cl)cc2)CC1 (centres undefined) 0, O=C1CN2Cc3c(ccc(Cl)c3Cl)N=C2N1 0, O=C(O)C(S)C(S)C(=O)O (centres undefined) 0, OC[C@@H](O)[C@@H](O[C@@H]1O[C@H](CO)[C@@H](O)[C@H](O)[C@H]1O)[C@H](O)[C@@H](O)CO 0, CC(=O)OCC(=O)[C@@]1(OC(C)=O)[C@@H](C)C[C@H]2[C@@H]3C[C@H](F)C4=CC(=O)C=C[C@]4(C)[C@@]3(F)[C@@H](O)C[C@@]21C 0, COC1=CC(=O)C[C@@H](C)[C@]12Oc1c(Cl)c(OC)cc(OC)c1C2=O 0, C[C@H]1c2cccc(O)c2C(=O)C2=C(O)[C@]3(O)C(=O)C(C(N)=O)=C(O)[C@@H](N(C)C)[C@@H]3[C@@H](O)[C@@H]21 0, CO/N=C(\C(=O)N[C@@H]1C(=O)N2C(C(=O)O)=C(CSC(=O)c3ccco3)CS[C@H]12)c1csc(N)n1 0, O=C(O)CSCC(=O)NC1CCSC1=O (centres undefined) 0, CC(C)Oc1ccc2c(=O)c(-c3ccccc3)coc2c1 0, Cn1c(=O)[nH]c2ncn(C)c2c1=O 0, CN(C)CCCOc1nn(Cc2ccccc2)c2ccccc12 0, Cc1cc(C(C)(C)CC(C)(C)C)ccc1OCCOCC[N+](C)(C)Cc1ccccc1 0, CC1Cc2ccccc2N1NC(=O)c1ccc(Cl)c(S(N)(=O)=O)c1 (centres undefined) 0
